Experimental data as given in the supplement of paper PMC10849652.
The list shows a part of the results.

Amino acid sequences for entries named in this document (tags omitted). A change or cut given only in a name is not applied to a line headed by its entry.
UniProt Q8IWE5: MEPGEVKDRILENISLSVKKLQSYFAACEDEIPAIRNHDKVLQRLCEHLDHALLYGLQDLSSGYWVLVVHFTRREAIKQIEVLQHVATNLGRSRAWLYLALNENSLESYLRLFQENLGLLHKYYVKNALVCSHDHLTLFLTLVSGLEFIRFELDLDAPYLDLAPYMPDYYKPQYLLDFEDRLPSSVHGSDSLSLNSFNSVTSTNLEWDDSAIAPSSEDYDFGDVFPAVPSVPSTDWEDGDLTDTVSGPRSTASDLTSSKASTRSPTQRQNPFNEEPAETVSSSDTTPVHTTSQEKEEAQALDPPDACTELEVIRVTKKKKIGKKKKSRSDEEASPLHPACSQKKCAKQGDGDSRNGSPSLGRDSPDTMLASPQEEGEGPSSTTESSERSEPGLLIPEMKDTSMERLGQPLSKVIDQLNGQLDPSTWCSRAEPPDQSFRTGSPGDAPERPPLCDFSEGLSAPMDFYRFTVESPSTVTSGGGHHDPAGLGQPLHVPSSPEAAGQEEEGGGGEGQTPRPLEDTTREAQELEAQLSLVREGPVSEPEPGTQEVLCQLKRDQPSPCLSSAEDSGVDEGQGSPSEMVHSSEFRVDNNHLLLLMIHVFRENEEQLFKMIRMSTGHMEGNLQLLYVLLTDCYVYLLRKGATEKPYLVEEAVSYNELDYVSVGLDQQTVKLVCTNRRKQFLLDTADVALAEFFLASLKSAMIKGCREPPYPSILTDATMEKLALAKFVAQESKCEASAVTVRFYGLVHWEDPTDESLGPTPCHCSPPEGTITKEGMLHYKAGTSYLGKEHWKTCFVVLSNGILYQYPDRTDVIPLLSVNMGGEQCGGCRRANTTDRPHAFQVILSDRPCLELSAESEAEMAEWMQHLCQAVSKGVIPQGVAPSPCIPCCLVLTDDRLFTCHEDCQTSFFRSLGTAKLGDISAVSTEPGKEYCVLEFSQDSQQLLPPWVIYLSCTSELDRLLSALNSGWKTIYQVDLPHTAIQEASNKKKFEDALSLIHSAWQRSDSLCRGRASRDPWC
UniProt Q9NQ55: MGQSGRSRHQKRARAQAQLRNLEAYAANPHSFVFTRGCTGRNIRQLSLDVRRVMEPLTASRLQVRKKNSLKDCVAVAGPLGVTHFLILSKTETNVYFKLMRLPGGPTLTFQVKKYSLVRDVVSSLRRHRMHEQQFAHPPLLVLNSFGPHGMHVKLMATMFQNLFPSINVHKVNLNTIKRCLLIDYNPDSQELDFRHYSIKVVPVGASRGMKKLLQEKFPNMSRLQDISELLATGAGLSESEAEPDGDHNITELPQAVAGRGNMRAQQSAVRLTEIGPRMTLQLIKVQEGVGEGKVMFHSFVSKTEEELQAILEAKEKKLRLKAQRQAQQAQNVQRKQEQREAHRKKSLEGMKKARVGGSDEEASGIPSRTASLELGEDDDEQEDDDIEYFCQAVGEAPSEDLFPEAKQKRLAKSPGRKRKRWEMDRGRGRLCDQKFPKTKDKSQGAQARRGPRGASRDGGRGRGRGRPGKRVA
UniProt Q9NRF9: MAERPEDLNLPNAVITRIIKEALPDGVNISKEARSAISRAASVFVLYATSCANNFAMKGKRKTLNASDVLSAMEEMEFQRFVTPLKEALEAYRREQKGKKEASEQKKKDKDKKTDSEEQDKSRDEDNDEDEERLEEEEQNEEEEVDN
UniProt Q7Z4H8: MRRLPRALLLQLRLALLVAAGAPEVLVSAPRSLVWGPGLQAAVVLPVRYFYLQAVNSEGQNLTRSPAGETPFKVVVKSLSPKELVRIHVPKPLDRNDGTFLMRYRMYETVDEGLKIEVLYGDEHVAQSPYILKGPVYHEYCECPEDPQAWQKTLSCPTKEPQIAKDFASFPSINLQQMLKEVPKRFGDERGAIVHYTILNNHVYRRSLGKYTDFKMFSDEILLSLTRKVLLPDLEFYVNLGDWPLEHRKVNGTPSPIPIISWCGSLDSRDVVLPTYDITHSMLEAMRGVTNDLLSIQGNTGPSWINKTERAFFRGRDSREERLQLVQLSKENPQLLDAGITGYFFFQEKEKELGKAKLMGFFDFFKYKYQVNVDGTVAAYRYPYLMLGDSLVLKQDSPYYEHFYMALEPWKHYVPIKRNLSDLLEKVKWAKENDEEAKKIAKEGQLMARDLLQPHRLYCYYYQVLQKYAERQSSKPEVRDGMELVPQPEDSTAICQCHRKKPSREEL
UniProt P14859: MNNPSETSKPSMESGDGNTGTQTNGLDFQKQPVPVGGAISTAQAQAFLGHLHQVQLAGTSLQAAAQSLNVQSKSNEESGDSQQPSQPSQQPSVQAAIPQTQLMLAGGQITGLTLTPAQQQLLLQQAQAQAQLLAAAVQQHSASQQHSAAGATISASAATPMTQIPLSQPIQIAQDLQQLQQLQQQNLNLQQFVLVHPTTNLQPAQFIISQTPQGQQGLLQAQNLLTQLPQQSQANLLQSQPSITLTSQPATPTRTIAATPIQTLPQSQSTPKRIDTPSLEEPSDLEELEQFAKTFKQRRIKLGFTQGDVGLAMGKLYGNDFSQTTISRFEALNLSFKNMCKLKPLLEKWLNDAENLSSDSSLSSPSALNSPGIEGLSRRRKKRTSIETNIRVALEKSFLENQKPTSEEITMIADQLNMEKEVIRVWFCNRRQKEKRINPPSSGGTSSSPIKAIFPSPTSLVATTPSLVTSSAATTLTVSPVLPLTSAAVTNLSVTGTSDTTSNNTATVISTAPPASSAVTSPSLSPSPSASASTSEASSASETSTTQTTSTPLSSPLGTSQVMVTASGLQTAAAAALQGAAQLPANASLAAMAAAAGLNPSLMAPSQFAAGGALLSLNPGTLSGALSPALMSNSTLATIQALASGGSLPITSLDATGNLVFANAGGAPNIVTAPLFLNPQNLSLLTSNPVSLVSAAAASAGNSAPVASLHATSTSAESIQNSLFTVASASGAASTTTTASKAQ
UniProt Q10713: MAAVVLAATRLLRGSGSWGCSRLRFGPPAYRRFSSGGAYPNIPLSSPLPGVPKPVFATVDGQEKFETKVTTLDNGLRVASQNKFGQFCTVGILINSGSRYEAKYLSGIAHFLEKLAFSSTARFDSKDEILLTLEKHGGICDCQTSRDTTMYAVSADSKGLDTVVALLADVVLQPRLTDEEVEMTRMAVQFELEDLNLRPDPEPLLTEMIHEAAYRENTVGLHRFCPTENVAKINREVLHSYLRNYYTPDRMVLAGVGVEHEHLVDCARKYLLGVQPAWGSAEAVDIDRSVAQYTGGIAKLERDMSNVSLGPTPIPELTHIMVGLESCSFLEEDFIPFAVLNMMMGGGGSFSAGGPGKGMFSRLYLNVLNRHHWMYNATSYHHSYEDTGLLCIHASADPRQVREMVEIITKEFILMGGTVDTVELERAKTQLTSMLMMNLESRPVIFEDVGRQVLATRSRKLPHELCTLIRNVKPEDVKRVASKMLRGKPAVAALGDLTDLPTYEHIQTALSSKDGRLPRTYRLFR
UniProt Q8TF01: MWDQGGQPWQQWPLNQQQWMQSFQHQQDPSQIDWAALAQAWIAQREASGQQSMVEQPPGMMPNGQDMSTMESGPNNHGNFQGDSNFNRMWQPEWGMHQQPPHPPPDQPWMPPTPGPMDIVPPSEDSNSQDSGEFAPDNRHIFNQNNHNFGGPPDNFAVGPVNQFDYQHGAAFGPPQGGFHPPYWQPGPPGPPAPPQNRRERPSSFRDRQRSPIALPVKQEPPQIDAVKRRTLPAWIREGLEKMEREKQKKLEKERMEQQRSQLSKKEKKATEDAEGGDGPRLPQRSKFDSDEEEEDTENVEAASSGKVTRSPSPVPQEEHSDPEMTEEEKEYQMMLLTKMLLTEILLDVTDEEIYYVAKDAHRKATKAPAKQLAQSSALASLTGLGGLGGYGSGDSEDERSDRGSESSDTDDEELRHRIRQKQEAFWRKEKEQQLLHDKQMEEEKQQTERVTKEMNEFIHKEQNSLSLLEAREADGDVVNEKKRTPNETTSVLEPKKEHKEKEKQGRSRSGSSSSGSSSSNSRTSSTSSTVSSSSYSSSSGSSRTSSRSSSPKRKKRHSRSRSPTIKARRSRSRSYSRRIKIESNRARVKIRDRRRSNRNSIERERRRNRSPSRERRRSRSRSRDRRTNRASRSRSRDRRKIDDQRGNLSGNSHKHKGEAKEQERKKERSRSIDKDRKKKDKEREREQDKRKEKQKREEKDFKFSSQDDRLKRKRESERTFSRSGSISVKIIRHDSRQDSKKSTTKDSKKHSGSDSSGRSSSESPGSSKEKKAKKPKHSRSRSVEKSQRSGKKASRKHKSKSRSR
UniProt P62937, whole entry, looked up: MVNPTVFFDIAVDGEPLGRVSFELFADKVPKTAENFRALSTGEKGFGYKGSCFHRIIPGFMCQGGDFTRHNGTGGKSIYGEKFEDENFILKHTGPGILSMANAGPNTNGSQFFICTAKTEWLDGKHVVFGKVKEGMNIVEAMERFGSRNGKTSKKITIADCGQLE
UniProt Q9NR33: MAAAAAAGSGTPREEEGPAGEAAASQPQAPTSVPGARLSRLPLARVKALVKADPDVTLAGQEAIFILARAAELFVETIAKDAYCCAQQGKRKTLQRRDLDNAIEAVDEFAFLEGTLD
UniProt Q9HAB8: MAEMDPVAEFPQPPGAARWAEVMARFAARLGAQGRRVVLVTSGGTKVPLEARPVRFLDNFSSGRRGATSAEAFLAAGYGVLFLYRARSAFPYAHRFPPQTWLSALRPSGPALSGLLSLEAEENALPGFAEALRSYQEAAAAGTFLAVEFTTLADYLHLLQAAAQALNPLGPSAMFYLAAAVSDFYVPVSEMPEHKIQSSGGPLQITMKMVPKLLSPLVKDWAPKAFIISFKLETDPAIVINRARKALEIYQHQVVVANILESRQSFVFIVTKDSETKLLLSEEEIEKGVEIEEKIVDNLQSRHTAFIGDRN
UniProt O95602, whole entry, looked up: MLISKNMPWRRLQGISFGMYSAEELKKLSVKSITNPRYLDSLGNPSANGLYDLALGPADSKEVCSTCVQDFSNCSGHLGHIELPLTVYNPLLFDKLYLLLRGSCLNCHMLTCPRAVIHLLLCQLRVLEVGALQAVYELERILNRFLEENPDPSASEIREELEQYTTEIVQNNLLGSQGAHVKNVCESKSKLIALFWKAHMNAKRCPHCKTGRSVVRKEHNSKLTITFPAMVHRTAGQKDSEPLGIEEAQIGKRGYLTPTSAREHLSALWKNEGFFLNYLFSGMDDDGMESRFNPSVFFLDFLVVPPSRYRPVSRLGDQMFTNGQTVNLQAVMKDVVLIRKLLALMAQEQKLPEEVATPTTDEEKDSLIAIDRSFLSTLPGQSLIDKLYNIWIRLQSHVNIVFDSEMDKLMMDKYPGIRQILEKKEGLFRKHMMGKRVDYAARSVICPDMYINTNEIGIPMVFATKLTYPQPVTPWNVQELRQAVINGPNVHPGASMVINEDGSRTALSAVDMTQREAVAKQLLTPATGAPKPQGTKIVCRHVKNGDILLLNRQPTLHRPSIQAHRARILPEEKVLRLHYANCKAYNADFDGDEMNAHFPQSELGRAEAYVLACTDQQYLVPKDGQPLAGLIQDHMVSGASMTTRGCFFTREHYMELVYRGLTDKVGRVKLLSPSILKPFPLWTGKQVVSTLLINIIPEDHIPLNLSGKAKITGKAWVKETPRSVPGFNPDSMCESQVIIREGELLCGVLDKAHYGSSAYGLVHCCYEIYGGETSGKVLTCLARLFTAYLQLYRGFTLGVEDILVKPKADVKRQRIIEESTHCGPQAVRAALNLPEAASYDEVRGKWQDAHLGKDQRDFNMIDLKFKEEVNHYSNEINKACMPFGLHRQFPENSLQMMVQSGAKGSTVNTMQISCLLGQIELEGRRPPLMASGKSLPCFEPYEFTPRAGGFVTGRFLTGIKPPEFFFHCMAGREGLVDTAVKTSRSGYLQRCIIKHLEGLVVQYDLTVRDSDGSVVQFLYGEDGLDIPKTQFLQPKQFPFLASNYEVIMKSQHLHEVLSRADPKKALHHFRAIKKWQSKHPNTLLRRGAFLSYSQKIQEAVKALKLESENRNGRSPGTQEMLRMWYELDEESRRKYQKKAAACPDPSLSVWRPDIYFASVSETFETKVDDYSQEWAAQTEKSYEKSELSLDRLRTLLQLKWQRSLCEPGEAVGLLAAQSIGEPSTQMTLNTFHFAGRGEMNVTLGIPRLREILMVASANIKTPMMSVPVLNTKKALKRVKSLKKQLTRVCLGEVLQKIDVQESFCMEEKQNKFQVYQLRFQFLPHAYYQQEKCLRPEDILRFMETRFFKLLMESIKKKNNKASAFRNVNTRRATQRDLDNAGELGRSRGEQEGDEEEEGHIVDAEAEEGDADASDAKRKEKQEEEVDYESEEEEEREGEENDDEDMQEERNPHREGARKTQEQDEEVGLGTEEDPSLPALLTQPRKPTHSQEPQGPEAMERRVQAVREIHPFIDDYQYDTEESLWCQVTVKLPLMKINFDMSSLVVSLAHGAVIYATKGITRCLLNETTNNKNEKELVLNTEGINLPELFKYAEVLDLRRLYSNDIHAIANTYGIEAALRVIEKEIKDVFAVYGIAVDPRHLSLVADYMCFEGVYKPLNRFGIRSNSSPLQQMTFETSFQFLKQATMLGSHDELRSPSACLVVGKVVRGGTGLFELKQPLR

Compound: C1=CC=C2C(=C1)C3=NNC4=CC=CC(=C43)C2=O
Test: log2 fold change, soluble protein after heating vs DMSO (PISA); higher = thermal stabilisation; K562 lysate, 10 uM; active = over 0.2 and 3.5 SD of the protein, either way, in both replicates (recomputed)
Summary of the method: (§1)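 K562 pellets were dounce-homogenised in PBS pH 7.4 with 1 mM MgCl2, and the crude extract at 1 mg/mL protein was treated with 10 μM compound for 30 min. Aliquots were heated for 3 min across 48°C-58°C, pooled, and brought to 0.5% NP-40 at 4°C; soluble protein was the supernatant after 21,000xg for 90 min. Soluble protein was quantified by TMTpro 16plex LC-MS/MS with channel sums equalised, and reported as log2 fold change in thermal stability against DMSO controls, with values from duplicates.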

log2 fold change, inactive:
PLEKHM2 (UniProt Q8IWE5) -0.01
PPAN isoform 3 (UniProt Q9NQ55) 0.032
POTEF (UniProt A5A3E0) 0.042
POLE3 (UniProt Q9NRF9) 0.024
PLGRKT (UniProt Q9HBL7) -0.146
POGLUT3 (UniProt Q7Z4H8) -0.04
POMGNT1 isoform 2 (UniProt Q8WZA1) -0.066
PMPCB (UniProt O75439) -0.03
POLR3K (UniProt Q9Y2Y1) -0.058
PNN (UniProt Q9H307) 0.006
POU2F1 isoform 6 (UniProt P14859) 0.02
PMM1 (UniProt Q92871) -0.01
PMPCA (UniProt Q10713) -0.014
POLR3C (UniProt Q9BUI4) 0.055
PNPLA8 (UniProt Q9NP80) 0.038
PLXNA3 (UniProt P51805) 0.155
POLD3 (UniProt Q15054) -0.048
PPID (UniProt Q08752) -0.019
PNISR (UniProt Q8TF01) 0.014
POP1 (UniProt Q99575) 0.031
POLR3F (UniProt Q9H1D9) -0.046
PMS2 (UniProt P54278) -0.032
POLR2H (UniProt P52434) -0.017
PPIA (UniProt P62937) 0.023
POLR3B (UniProt Q9NW08) -0.01
POGLUT1 (UniProt Q8NBL1) -0.038
POMP (UniProt Q9Y244) -0.08
PLOD1 (UniProt Q02809) -0.008
POLE4 (UniProt Q9NR33) -0.067
POLR2A, A0A590UJN4 -0.03
PPFIA2 (UniProt O75334) -0.006
POLR1D (UniProt P0DPB6) -0.021
PNPT1 (UniProt Q8TCS8) -0.016
PODXL2 (UniProt Q9NZ53) 0
POLR3D (UniProt P05423) -0.011
POM121 (UniProt Q96HA1) -0.001
PMF1 (UniProt Q6P1K2) 0.008
PPCS (UniProt Q9HAB8) -0.043
POLR1A (UniProt O95602) -0.074

Compound: C1CCN(C1)C(=O)NC2=CC=CC(=C2)NC3=NC=C(C(=N3)NCCC4=CN=CN4)Br
Test: as above
Summary of the method: as §1

log2 fold change, inactive:
PLEKHM2 (UniProt Q8IWE5) -0.016
PPAN isoform 3 (UniProt Q9NQ55) -0.056
POTEF (UniProt A5A3E0) -0.031
POLE3 (UniProt Q9NRF9) 0.005
PLGRKT (UniProt Q9HBL7) -0.072
POGLUT3 (UniProt Q7Z4H8) -0.038
POMGNT1 isoform 2 (UniProt Q8WZA1) 0.011
PMPCB (UniProt O75439) -0.01
POLR3K (UniProt Q9Y2Y1) 0.013
PNN (UniProt Q9H307) -0.008
POU2F1 isoform 6 (UniProt P14859) -0.003
PMM1 (UniProt Q92871) 0.021
PMPCA (UniProt Q10713) -0.026
POLR3C (UniProt Q9BUI4) -0.037
PNPLA8 (UniProt Q9NP80) 0.085
PLXNA3 (UniProt P51805) -0.11
POLD3 (UniProt Q15054) -0.058
PPID (UniProt Q08752) 0
PNISR (UniProt Q8TF01) -0.009
POP1 (UniProt Q99575) 0.007
POLR3F (UniProt Q9H1D9) 0.006
PMS2 (UniProt P54278) -0.013
POLR2H (UniProt P52434) -0.013
PPIA (UniProt P62937) 0.01
POLR3B (UniProt Q9NW08) -0.01
POGLUT1 (UniProt Q8NBL1) -0.027
POMP (UniProt Q9Y244) -0.099
PLOD1 (UniProt Q02809) 0
POLE4 (UniProt Q9NR33) -0.018
POLR2A, A0A590UJN4 -0.014
PPFIA2 (UniProt O75334) 0.02
POLR1D (UniProt P0DPB6) -0.037
PNPT1 (UniProt Q8TCS8) -0.021
PODXL2 (UniProt Q9NZ53) -0.08
POLR3D (UniProt P05423) -0.016
POM121 (UniProt Q96HA1) -0.145
PMF1 (UniProt Q6P1K2) -0.06
PPCS (UniProt Q9HAB8) -0.045
POLR1A (UniProt O95602) -0.015
